Measured values reported in article PMC11005723, “Development of Complementary Photo‐arginine/lysine to Promote Discovery of Arg/Lys hPTMs Interactomes” (Advanced Science, 2024).
The source gives many values for each of these; only a part stands here.

Test system: HEK293T nuclear lysates
Assay: SILAC‐based pull‐down proteomics H4K5me1/H4K5 (probes 6/5)
Format: binding, human

probe 6: H4K5me peptide probe with photo‐arginine R(dz) and K(biotin) (SGRGKGGKGLGKGGK; photo-arginine R(dz) at 3; monomethyl-lysine at 5; K(biotin) at 15)
B6 log2 (H4K5me/H4K5) (protein A0A0B4J1W3 NAA15, run B6): 0.3204
C6 log (H4K5me/H4K5) (protein A0A0B4J1W3 NAA15, run C6): -0.5428
B6 log2 (H4K5me/H4K5) (protein A0A0B4J2E5 LOC102724159, run B6): 0.4123
C6 log (H4K5me/H4K5) (protein A0A0B4J2E5 LOC102724159, run C6): 0.265
B6 log2 (H4K5me/H4K5) (protein A0A0C4DFX4 Uncharacterized protein (Fragment), run B6): 0.1431
C6 log (H4K5me/H4K5) (protein A0A0C4DFX4 Uncharacterized protein (Fragment), run C6): 0.03123
B6 log2 (H4K5me/H4K5) (protein A0A0U1RR22 PACSIN2, run B6): 0.5847
C6 log (H4K5me/H4K5) (protein A0A0U1RR22 PACSIN2, run C6): 0.5847
B6 log2 (H4K5me/H4K5) (protein A0A1B0GUB2 CDC73, run B6): 0.1338
C6 log (H4K5me/H4K5) (protein A0A1B0GUB2 CDC73, run C6): -0.6553
B6 log2 (H4K5me/H4K5) (protein A0A1W2PQ90 Uncharacterized protein, run B6): 0.3344
C6 log (H4K5me/H4K5) (protein A0A1W2PQ90 Uncharacterized protein, run C6): -0.04098
B6 log2 (H4K5me/H4K5) (protein A0A087WVT1 ZNF48, run B6): 0.1392
C6 log (H4K5me/H4K5) (protein A0A087WVT1 ZNF48, run C6): 0.3481
B6 log2 (H4K5me/H4K5) (protein A0A087WY61 NUMA1, run B6): 0.4403
C6 log (H4K5me/H4K5) (protein A0A087WY61 NUMA1, run C6): 0.234
B6 log2 (H4K5me/H4K5) (protein A0A590UJK4 SRSF6, run B6): 0.4188
C6 log (H4K5me/H4K5) (protein A0A590UJK4 SRSF6, run C6): 0.701
B6 log2 (H4K5me/H4K5) (protein ABI2 (E9PEZ7), run B6): 0.05156
C6 log (H4K5me/H4K5) (protein ABI2 (E9PEZ7), run C6): 0.1509
B6 log2 (H4K5me/H4K5) (protein ACAT1 (A0A5F9ZHJ7), run B6): 0.01703
C6 log (H4K5me/H4K5) (protein ACAT1 (A0A5F9ZHJ7), run C6): 0.06128
B6 log2 (H4K5me/H4K5) (protein ACTL6A (O96019), SILAC run B6): -0.3299
C6 log (H4K5me/H4K5) (protein ACTL6A (O96019), SILAC run C6): -0.03866
B6 log2 (H4K5me/H4K5) (protein ADAR (P55265), run B6): -0.01052
C6 log (H4K5me/H4K5) (protein ADAR (P55265), run C6): -0.07333
B6 log2 (H4K5me/H4K5) (protein AHSA1 (O95433), SILAC run B6): -0.3074
C6 log (H4K5me/H4K5) (protein AHSA1 (O95433), SILAC run C6): -0.4405
B6 log2 (H4K5me/H4K5) (protein ANP32A (P39687), run B6): 0.07542
C6 log (H4K5me/H4K5) (protein ANP32A (P39687), run C6): -0.03396
B6 log2 (H4K5me/H4K5) (protein ANP32E (Q9BTT0), SILAC run B6): -0.3202
C6 log (H4K5me/H4K5) (protein ANP32E (Q9BTT0), SILAC run C6): -0.3496
B6 log2 (H4K5me/H4K5) (protein ANXA2 (P07355), run B6): 0.1054
C6 log (H4K5me/H4K5) (protein ANXA2 (P07355), run C6): -0.006249
B6 log2 (H4K5me/H4K5) (protein ARIH1 (Q9Y4X5), run B6): 0.04302
C6 log (H4K5me/H4K5) (protein ARIH1 (Q9Y4X5), run C6): 0.09616
B6 log2 (H4K5me/H4K5) (protein ARL6IP4 (F5GYV5), SILAC run B6): -0.3984
C6 log (H4K5me/H4K5) (protein ARL6IP4 (F5GYV5), SILAC run C6): -0.271
B6 log2 (H4K5me/H4K5) (protein ATF7IP (Q6VMQ6), run B6): 0.1175
C6 log (H4K5me/H4K5) (protein ATF7IP (Q6VMQ6), run C6): -0.9105
B6 log2 (H4K5me/H4K5) (protein B5MDQ0 ERCC6L, run B6): 0.3807
C6 log (H4K5me/H4K5) (protein B5MDQ0 ERCC6L, run C6): -0.7652
B6 log2 (H4K5me/H4K5) (protein BCCIP (Q9P287), run B6): -0.001051
C6 log (H4K5me/H4K5) (protein BCCIP (Q9P287), run C6): -0.1692
B6 log2 (H4K5me/H4K5) (protein BIN1 (O00499), SILAC run B6): -0.2006
C6 log (H4K5me/H4K5) (protein BIN1 (O00499), SILAC run C6): -0.3971
B6 log2 (H4K5me/H4K5) (protein BOD1L1 (Q8NFC6), run B6): 0.00162
C6 log (H4K5me/H4K5) (protein BOD1L1 (Q8NFC6), run C6): -0.09575
B6 log2 (H4K5me/H4K5) (protein BPTF (F5GXF5), run B6): 0.004019
C6 log (H4K5me/H4K5) (protein BPTF (F5GXF5), run C6): -0.2522
B6 log2 (H4K5me/H4K5) (protein BRD3 (Q15059), SILAC run B6): -0.289
C6 log (H4K5me/H4K5) (protein BRD3 (Q15059), SILAC run C6): -0.3232
B6 log2 (H4K5me/H4K5) (protein BRD4 (O60885), SILAC run B6): -0.3226
C6 log (H4K5me/H4K5) (protein BRD4 (O60885), SILAC run C6): -0.2948
B6 log2 (H4K5me/H4K5) (protein BRD7 (Q9NPI1), run B6): 0.08011
C6 log (H4K5me/H4K5) (protein BRD7 (Q9NPI1), run C6): 0.09406
B6 log2 (H4K5me/H4K5) (protein BRD8 (B5MCW3), SILAC run B6): -0.4811
C6 log (H4K5me/H4K5) (protein BRD8 (B5MCW3), SILAC run C6): -0.188
B6 log2 (H4K5me/H4K5) (protein BZW2 (E7ETZ4), SILAC run B6): -0.2716
C6 log (H4K5me/H4K5) (protein BZW2 (E7ETZ4), SILAC run C6): -0.4586
B6 log2 (H4K5me/H4K5) (protein C1QBP (Q07021), run B6): -0.003748
C6 log (H4K5me/H4K5) (protein C1QBP (Q07021), run C6): -0.1397
B6 log2 (H4K5me/H4K5) (protein C1orf52 (Q8N6N3), SILAC run B6): -0.3601
C6 log (H4K5me/H4K5) (protein C1orf52 (Q8N6N3), SILAC run C6): -0.1997
B6 log2 (H4K5me/H4K5) (protein C9J3L8 SSR1, run B6): 0.2748
C6 log (H4K5me/H4K5) (protein C9J3L8 SSR1, run C6): 0.2786
B6 log2 (H4K5me/H4K5) (protein C9JRU6 DCUN1D1, run B6): 0.4887
C6 log (H4K5me/H4K5) (protein C9JRU6 DCUN1D1, run C6): 0.8825
B6 log2 (H4K5me/H4K5) (protein C11orf84 (Q9BUA3), run B6): -0.01751
C6 log (H4K5me/H4K5) (protein C11orf84 (Q9BUA3), run C6): 0.3521
B6 log2 (H4K5me/H4K5) (protein C22orf28 (Q9Y3I0), run B6): 0.09589
C6 log (H4K5me/H4K5) (protein C22orf28 (Q9Y3I0), run C6): 0.5939
B6 log2 (H4K5me/H4K5) (protein CALM1 (P62158), run B6): -0.008735
C6 log (H4K5me/H4K5) (protein CALM1 (P62158), run C6): -0.02009
B6 log2 (H4K5me/H4K5) (protein CALR (P27797), SILAC run B6): -0.2715
C6 log (H4K5me/H4K5) (protein CALR (P27797), SILAC run C6): -0.3204
B6 log2 (H4K5me/H4K5) (protein CANX (P27824), run B6): 0.05675
C6 log (H4K5me/H4K5) (protein CANX (P27824), run C6): -0.4177
B6 log2 (H4K5me/H4K5) (protein CAPRIN1 (E9PLA9), run B6): 0.01797
C6 log (H4K5me/H4K5) (protein CAPRIN1 (E9PLA9), run C6): 0.234
B6 log2 (H4K5me/H4K5) (protein CBX2 (Q14781), run B6): 0.1082
C6 log (H4K5me/H4K5) (protein CBX2 (Q14781), run C6): 0.02951
B6 log2 (H4K5me/H4K5) (protein CCDC50 (Q8IVM0), SILAC run B6): -0.2246
C6 log (H4K5me/H4K5) (protein CCDC50 (Q8IVM0), SILAC run C6): 0.1104
B6 log2 (H4K5me/H4K5) (protein CCT2 (P78371), run B6): -0.0172
C6 log (H4K5me/H4K5) (protein CCT2 (P78371), run C6): 0.09255
B6 log2 (H4K5me/H4K5) (protein CCT3 (B4DUR8), SILAC run B6): -0.2158
C6 log (H4K5me/H4K5) (protein CCT3 (B4DUR8), SILAC run C6): -0.1815
B6 log2 (H4K5me/H4K5) (protein CCT4 (P50991), SILAC run B6): -0.252
C6 log (H4K5me/H4K5) (protein CCT4 (P50991), SILAC run C6): -0.186
B6 log2 (H4K5me/H4K5) (protein CCT5 (B7ZAR1), run B6): 0.05297
C6 log (H4K5me/H4K5) (protein CCT5 (B7ZAR1), run C6): 0.1458
B6 log2 (H4K5me/H4K5) (protein CCT6A (P40227), SILAC run B6): -0.6445
C6 log (H4K5me/H4K5) (protein CCT6A (P40227), SILAC run C6): 0.1508
B6 log2 (H4K5me/H4K5) (protein CCT8 (P50990), run B6): 0.05735
C6 log (H4K5me/H4K5) (protein CCT8 (P50990), run C6): 0.02454
B6 log2 (H4K5me/H4K5) (protein CD3EAP (O15446), SILAC run B6): -0.5108
C6 log (H4K5me/H4K5) (protein CD3EAP (O15446), SILAC run C6): -0.5438
B6 log2 (H4K5me/H4K5) (protein CDC5L (Q99459), run B6): 0.09795
C6 log (H4K5me/H4K5) (protein CDC5L (Q99459), run C6): 0.151
B6 log2 (H4K5me/H4K5) (protein CDC27 (G5EA36), run B6): 0.01235
C6 log (H4K5me/H4K5) (protein CDC27 (G5EA36), run C6): -0.1591
B6 log2 (H4K5me/H4K5) (protein CDK1 (A0A024QZP7), SILAC run B6): -0.9796
C6 log (H4K5me/H4K5) (protein CDK1 (A0A024QZP7), SILAC run C6): -0.9055
B6 log2 (H4K5me/H4K5) (protein CEBPZ (Q03701), SILAC run B6): -0.2332
C6 log (H4K5me/H4K5) (protein CEBPZ (Q03701), SILAC run C6): -0.1202
B6 log2 (H4K5me/H4K5) (protein CFL1 (G3V1A4), run B6): 0.0742
C6 log (H4K5me/H4K5) (protein CFL1 (G3V1A4), run C6): -0.03597
B6 log2 (H4K5me/H4K5) (protein CHAF1A (Q13111), run B6): 0.002339
C6 log (H4K5me/H4K5) (protein CHAF1A (Q13111), run C6): 0.0778
B6 log2 (H4K5me/H4K5) (protein CHD1L (Q86WJ1), SILAC run B6): -0.2887
C6 log (H4K5me/H4K5) (protein CHD1L (Q86WJ1), SILAC run C6): -0.02242
B6 log2 (H4K5me/H4K5) (protein CHD4 (A0A2R8Y425), run B6): -0.01294
